Percent effect of library compounds

A: 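Phenotypic screen: M. tuberculosis growth, glucose 7H9 medium, 3 days; the read-out is not stated. Compounds at 50 µM. Higher reads as more growth inhibition (inferred: compounds with an IC50 in retests scored well above the rest). Size under these conditions: about 69,000 compounds, about 760 of them at 50% or above in at least one test.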
B: 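Growth of Mycobacterium tuberculosis over 4 days (cholesterol / DPPC medium with tyloxapol); the read-out is not stated. Tested at 50 µM. The record gives no direction; compounds that gave an IC50 in retests scored well above the rest, so higher reads as more growth inhibition. About 69,000 compounds were tested under these conditions; 0.54% (about 370) showed 50% or more at least once.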

Each number is a percent effect as filed. How 0% and 100% were set is not recorded. Most values in the screen are low, and negative values occur. Compounds were drawn at random from those tested, without regard to their results. Two or more numbers in one place are separate tests of the same structure; such repeats can differ widely.

* Cc1cccnc1CNCC1(O)CCCN(CC2CCC2)C1=O (stereo not shown) : A: 7.498%; B: -5.783%
* Cc1nc(C)n(CC(C)C(=O)N2CCC(N3CCC(O)CC3)CC2)n1 (stereo not shown) : A: 10.64%; B: 1.583%
* Cc1ccc(C(=O)N(C)S(C)(=O)=O)cc1Cl : A: -10.06%; B: 8.106%
* COC(=O)CC1CN(Cc2ccn(-c3ccc(F)cc3)n2)CCO1 (stereo not shown) : A: -1.675% and -1.759%; B: 2.635%
* Cc1nc(N2CCCC2)ncc1C(=O)Nc1ccc(Br)cc1 : A: 1.499%; B: 6.845%
* CN1CC2(CCN(CCCOCc3ccccc3)CC2)OC1=O : A: 2.119%; B: 4.297%
* O=C1CC2(CCN(C(=O)c3csc(-c4ccccc4)n3)C2)C(=O)N1 (stereo not shown) : A: -5.28%; B: -1.076%
* O=C1CC(c2ccc3c(c2)OCO3)c2c(n3ccsc3nc2=O)N1 (stereo not shown) : A: -13.06%; B: -23.55%
* Cc1ccc(C(N)=O)c(N2Cc3cnc(C(C)(C)C)nc3C2)n1 : A: 7.058% and -4.341%; B: -3.743%
* Cc1ccc(N2CCC3(CCCN3Cc3ccn(C)n3)CC2)nn1.O=C(O)C(F)(F)F : A: -4.609% and 15.69%; B: 8.398%
* CCCS(=O)(=O)NC1CCN(c2cccc(F)c2C#N)CC1 : A: 27.41%; B: 1.241%
* O=C(c1ccccn1)N1Cc2nccn2CC(COc2cccnc2)C1 (stereo not shown) : A: -8.208%; B: -28.27%
* CC(=O)NCCNCc1cn(CCN2CCSCC2)nc1C : A: -38%; B: -5.953%
* CN1CC(C(=O)NCCc2ccc3c(c2)OCCO3)CC1=O (stereo not shown) : A: 17.27%; B: -5.337%
* O=C(COc1ccc2c(c1)CCC2)NS(=O)(=O)c1cncc(Br)c1 : A: 0.5761%; B: 2.446%
* CC[C@@H]1N(C)CCC[C@]12CCC(=O)N2Cc1ccncc1.O=C(O)C(F)(F)F.O=C(O)C(F)(F)F : A: -26.16%; B: -7.111%
* CC(C)NC(=O)c1ccc2nnc(C3CCN(C(=O)NC(C)C)C3)n2c1 (stereo not shown) : A: -15.65% and 18.9%; B: 7.245%
* Cc1cccnc1C(=O)N1CCCCC1c1[nH]ncc1S(C)(=O)=O (stereo not shown) : A: 15.27%; B: 3.803%
* Cn1nnnc1SCCNC(=O)c1c[nH]nc1C1CCCCC1 : A: -7.798%; B: -2.924%
* Cc1ccc(NCCCc2c(C)noc2C)nn1 : A: -1.275% and 0.3512%; B: 14.95%
* COCCN(C)Cc1ccc(OC)c(OC(F)F)c1 : A: -32.31%; B: -1.361%
* O=S(=O)(CCc1ccccc1)Nc1cc(Cl)ccn1 : B: -72.69%
* CN(CC(=O)Nc1cc(CC2CCCCC2)n[nH]1)S(C)(=O)=O : A: 4.028%; B: 20.62%
* Cc1noc(CS(=O)(=O)C(C)C(=O)N(C)c2ccccc2)n1 (stereo not shown) : A: 11.65%; B: -0.9133%
* COC(=O)CC(c1cccs1)c1oc(C)cc(=O)c1O (stereo not shown) : A: -13.49%; B: -7.562%
* CC1(C)CCN(Cc2ccccc2-c2nc(C(C)(C)C)cc(=O)[nH]2)C1 : B: -36.5%
* CC(C)Cc1cc(C(=O)NC(C)(CO)CO)n(C)n1 : A: 0.2232% and -13.81%; B: -17.38%
* Cc1nc(N2CCOCC2)nc2c1CN(C(=O)Cc1ccccn1)CC2 : A: 16.5%; B: 8.473%
* CC(C)Cn1c(=O)nc2n1C(=O)N(c1ccc(F)cc1)C2 : A: 1.53%; B: 6.453%
* COCCNC(=O)NC(=O)CNc1c(F)cccc1N1CCCC1 : A: -7.054%; B: -4.227%
* COCC(=O)N1CCC2(CCC2NC(=O)c2ccn(C)c2)CC1 (stereo not shown) : A: -22.23%; B: 8.857%
* CCc1cnc(CN(C)C2CCN(CCNS(=O)(=O)CC)C2)o1 (stereo not shown) : A: 7.418%; B: -24.15%
* CCc1ccc(NC(C(N)=O)c2ccc(F)cc2)cc1 (stereo not shown) : A: 3.884%; B: 11.14%
* O=C(O)C(F)(F)F.O=C(c1cnccn1)N1CCOC2(CCCN(c3ncccc3F)C2)C1 (stereo not shown) : A: -19.02%; B: 4.602% and -28.32%
* Cn1nnnc1SCCNC(=O)C1CCN(C(=O)C2CCCC2)CC1 : A: -5.721%; B: -2.818%
* CCN(C)[C@H]1CN(C(=O)c2cccc(N3CCS(=O)(=O)CC3)c2)C[C@@H]1O : A: -27.13%; B: 9.778%
* CS(=O)(=O)CCOCCNc1cncc(Br)c1 : A: -0.9652% and 26.64%; B: 1.424%
* O=C(CN1CCCC1CC(=O)c1ccccc1)NCc1ccccn1 (stereo not shown) : A: -15.57%; B: -27.58%
* Cn1cc(C[C@H]2[C@H](N3CCOCC3)CCN2C(=O)c2ccoc2)cn1 : A: -2.591%; B: -3.765% and 3.552%
* Cc1cc(CN(C)C(=O)NC(C)Cc2ccc(O)cc2)no1 (stereo not shown) : A: 28.06%; B: 13.88%
* CN(Cc1nnc2ccccn12)C(=O)CCNC(=O)C(C)(C)C : A: 1.493%; B: -8.401%
* Cc1ncncc1-c1ccnc(NC(C)C)n1 : A: 5.219%; B: -11.83%
* CSCC(C)(O)CNC(=O)Nc1cc(C)cc(C)c1 (stereo not shown) : A: 12.5% and 33.23%; B: 17.56%
* CC(=O)c1cccc(S(=O)(=O)NCc2cccnc2N(C)C)c1 : A: -32.39%; B: -3.371%
* O=C(O)C(F)(F)F.[H][C@@]12CCN(Cc3sccc3C)C[C@]1(COC)CCO2 : A: -7.383%; B: -2.229%

Repeated from the top, 5 entries:

| Compound | A | B |
|---|---|---|
| `Cc1cccnc1CNCC1(O)CCCN(CC2CCC2)C1=O` (stereo not shown) | 7.498% | -5.783% |
| `Cc1nc(C)n(CC(C)C(=O)N2CCC(N3CCC(O)CC3)CC2)n1` (stereo not shown) | 10.64% | 1.583% |
| `Cc1ccc(C(=O)N(C)S(C)(=O)=O)cc1Cl` | -10.06% | 8.106% |
| `COC(=O)CC1CN(Cc2ccn(-c3ccc(F)cc3)n2)CCO1` (stereo not shown) | -1.675% and -1.759% | 2.635% |
| `Cc1nc(N2CCCC2)ncc1C(=O)Nc1ccc(Br)cc1` | 1.499% | 6.845% |

Source: ChEMBL document CHEMBL3988442, “University of Dundee, Small-Polar-MMV Screening Library” (2021).